PubChem BioAssay AID686943 | Drosophila RNAi Screening Center | 2013
The screen tested about 23,000 reagents; below is an unselected part of those with a known target gene and a result. 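Extra replicates exist only for a retested subset of genes; insulin dose and duration not given; both raised and lowered dpERK matter.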 The numbers tell different reagents against one gene apart. Not all columns of the deposit are shown. No sequences are given here. The record does not give: the amount of reagent, the time to read-out.

Assay: 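Knockdowns that increase or decrease active ERK after insulin receptor stimulation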 (primary screen)
System: Drosophila S2R+ haemocyte-like cells expressing YFP-tagged ERK (Rolled)
Reagent: long dsRNA against Drosophila genes
Treatment: insulin stimulation versus unstimulated cells; dose and duration not given
Measurement: 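Antibody staining for doubly phosphorylated ERK divided by ERK-YFP signal, as plate z-scores, in insulin-treated and untreated cells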
Direction: replicate 1, z-score of dpERK with insulin: higher = more active ERK per ERK-YFP after insulin

{"Gene": "dve", "dsRNA no.": 1, "replicate 1, z-score of dpERK with insulin": -0.24}
{"Gene": "CG3308", "dsRNA no.": 1, "replicate 1, z-score of dpERK with insulin": 0.92}
{"Gene": "CG16852", "dsRNA no.": 1, "replicate 1, z-score of dpERK with insulin": -0.02}
{"Gene": "Pgam5", "dsRNA no.": 1, "replicate 1, z-score of dpERK with insulin": 0.7}
{"Gene": "Lis-1", "dsRNA no.": 1, "replicate 1, z-score of dpERK with insulin": 0.7}
{"Gene": "abo", "dsRNA no.": 1, "replicate 1, z-score of dpERK with insulin": -0.14}
{"Gene": "cnn", "dsRNA no.": 1, "replicate 1, z-score of dpERK with insulin": 0.1}
{"Gene": "cnn", "dsRNA no.": 2, "replicate 1, z-score of dpERK with insulin": 0.82}
{"Gene": "epsilonTry", "dsRNA no.": 1, "replicate 1, z-score of dpERK with insulin": 0.25}
{"Gene": "CG14830", "dsRNA no.": 1, "replicate 1, z-score of dpERK with insulin": 0.07}
{"Gene": "CG5326", "dsRNA no.": 1, "replicate 1, z-score of dpERK with insulin": 0.43}
{"Gene": "CG5326", "dsRNA no.": 2, "replicate 1, z-score of dpERK with insulin": -0.17}
{"Gene": "Tsr1", "dsRNA no.": 1, "replicate 1, z-score of dpERK with insulin": 0.22}
{"Gene": "CR43359", "dsRNA no.": 1, "replicate 1, z-score of dpERK with insulin": -3.39}
{"Gene": "CG13133", "dsRNA no.": 1, "replicate 1, z-score of dpERK with insulin": 0.07}
{"Gene": "lili", "dsRNA no.": 1, "replicate 1, z-score of dpERK with insulin": -0.04}
{"Gene": "CG31145", "dsRNA no.": 1, "replicate 1, z-score of dpERK with insulin": -0.04}
{"Gene": "CG31145", "dsRNA no.": 2, "replicate 1, z-score of dpERK with insulin": 0.44}
{"Gene": "CG31145", "dsRNA no.": 3, "replicate 1, z-score of dpERK with insulin": -0.32}
{"Gene": "CG31145", "dsRNA no.": 4, "replicate 1, z-score of dpERK with insulin": 0.32}
{"Gene": "crp", "dsRNA no.": 1, "replicate 1, z-score of dpERK with insulin": 7.85}
{"Gene": "svr", "dsRNA no.": 1, "replicate 1, z-score of dpERK with insulin": -0.1}
{"Gene": "svr", "dsRNA no.": 2, "replicate 1, z-score of dpERK with insulin": 0.69}
{"Gene": "noi", "dsRNA no.": 1, "replicate 1, z-score of dpERK with insulin": 3.61}
{"Gene": "CG14589", "dsRNA no.": 1, "replicate 1, z-score of dpERK with insulin": -0.41}
{"Gene": "Cirl", "dsRNA no.": 1, "replicate 1, z-score of dpERK with insulin": -3.63}
{"Gene": "Cirl", "dsRNA no.": 2, "replicate 1, z-score of dpERK with insulin": 1.57}
{"Gene": "CG34433", "dsRNA no.": 1, "replicate 1, z-score of dpERK with insulin": 0.04}
{"Gene": "CG14551", "dsRNA no.": 1, "replicate 1, z-score of dpERK with insulin": -0.05}
{"Gene": "scramb2", "dsRNA no.": 1, "replicate 1, z-score of dpERK with insulin": 0.15}
{"Gene": "CG7024", "dsRNA no.": 1, "replicate 1, z-score of dpERK with insulin": -0.89}
{"Gene": "r-cup", "dsRNA no.": 1, "replicate 1, z-score of dpERK with insulin": -0.52}
{"Gene": "Or67a", "dsRNA no.": 1, "replicate 1, z-score of dpERK with insulin": 0.59}
{"Gene": "CG31055", "dsRNA no.": 1, "replicate 1, z-score of dpERK with insulin": 0.09}
{"Gene": "CG12061", "dsRNA no.": 1, "replicate 1, z-score of dpERK with insulin": -1.36}
{"Gene": "Pgant6", "dsRNA no.": 1, "replicate 1, z-score of dpERK with insulin": -0.96}
{"Gene": "CG15725", "dsRNA no.": 1, "replicate 1, z-score of dpERK with insulin": -0.23}
{"Gene": "N", "dsRNA no.": 1, "replicate 1, z-score of dpERK with insulin": -0.37}
{"Gene": "pncr003:2L (retired record)", "dsRNA no.": 1, "replicate 1, z-score of dpERK with insulin": -0.17}
{"Gene": "ball", "dsRNA no.": 1, "replicate 1, z-score of dpERK with insulin": -1.22}

4 entries already listed, sorted by “replicate 1, z-score of dpERK with insulin”, lowest first.
{"Gene": "abo", "dsRNA no.": 1, "replicate 1, z-score of dpERK with insulin": -0.14}
{"Gene": "cnn", "dsRNA no.": 1, "replicate 1, z-score of dpERK with insulin": 0.1}
{"Gene": "epsilonTry", "dsRNA no.": 1, "replicate 1, z-score of dpERK with insulin": 0.25}
{"Gene": "cnn", "dsRNA no.": 2, "replicate 1, z-score of dpERK with insulin": 0.82}
